Where “and” joins values, the source holds several entries; their conditions need not be identical. Equal values may be shown once. This continues a long series; more values of the same kind are listed elsewhere.
Tested on: telemetered dogs
Assay: Conscious dog telemetry (QRS amplitude and other cardiovascular parameters, tolerability)
Details: dog, 0.85 mg/kg
[1] = 0.85 mg/kg 0.5h infusion, 0.75 h
[2] = 0.85 mg/kg 0.5h infusion, 1.5 h
[3] = 0.85 mg/kg 0.5h infusion, -0.75 h
[4] = 0.85 mg/kg 0.5h infusion, -1.25 h

CN(CCO)CCC(CSc1ccccc1)Nc1ccc(S(=O)(=O)NC(=O)c2ccc(N3CCC(C(O)c4ccccc4-c4ccc(Cl)cc4)CC3)cc2)cc1S(=O)(=O)C(F)(F)F (stereo not drawn) [AZD4320]
Left ventricular -dP/dt (mmHg/s) [1]: 5279 mmHg/s | QRS amplitude (% baseline) [1]: 96 % baseline | Systolic blood pressure (mmHg) [1]: 165 mmHg and 177 mmHg | ECG PR interval (0.85 mg/kg 0.5h infusion, 1 h): 85 ms and 86 ms | ECG QRS duration (0.85 mg/kg 0.5h infusion, 1 h): 36 ms | Left ventricular -dP/dt (mmHg/s) (0.85 mg/kg 0.5h infusion, 1 h): 4595 mmHg/s | QRS amplitude (% baseline) (0.85 mg/kg 0.5h infusion, 1 h): 98 % baseline | Systolic blood pressure (mmHg) (0.85 mg/kg 0.5h infusion, 1 h): 150 mmHg and 149 mmHg | ECG PR interval [2]: 100 ms and 86 ms | ECG QRS duration [2]: 35 ms | Left ventricular -dP/dt (mmHg/s) [2]: 2368 mmHg/s and 4415 mmHg/s | QRS amplitude (% baseline) [2]: 89 % baseline and 91 % baseline | Systolic blood pressure (mmHg) [2]: 130 mmHg and 149 mmHg | ECG PR interval (0.85 mg/kg 0.5h infusion, 2 h): 97 ms and 79 ms | ECG QRS duration (0.85 mg/kg 0.5h infusion, 2 h): 33 ms | Left ventricular -dP/dt (mmHg/s) (0.85 mg/kg 0.5h infusion, 2 h): 2609 mmHg/s and 4822 mmHg/s | QRS amplitude (% baseline) (0.85 mg/kg 0.5h infusion, 2 h): 79 % baseline and 80 % baseline | Systolic blood pressure (mmHg) (0.85 mg/kg 0.5h infusion, 2 h): 142 mmHg | ECG PR interval (0.85 mg/kg 0.5h infusion, 3 h): 101 ms | ECG QRS duration (0.85 mg/kg 0.5h infusion, 3 h): 36 ms and 31 ms | QRS amplitude (% baseline) (0.85 mg/kg 0.5h infusion, 3 h): 51 % baseline and 56 % baseline | Systolic blood pressure (mmHg) (0.85 mg/kg 0.5h infusion, 3 h): 138 mmHg and 167 mmHg | ECG PR interval (0.85 mg/kg 0.5h infusion, 4 h): 82 ms and 77 ms | ECG QRS duration (0.85 mg/kg 0.5h infusion, 4 h): 35 ms and 32 ms | QRS amplitude (% baseline) (0.85 mg/kg 0.5h infusion, 4 h): 34 % baseline and 52 % baseline | Systolic blood pressure (mmHg) (0.85 mg/kg 0.5h infusion, 4 h): 106 mmHg and 150 mmHg | ECG PR interval (0.85 mg/kg 0.5h infusion, 6 h): 69 ms and 58 ms | ECG QRS duration (0.85 mg/kg 0.5h infusion, 6 h): 36 ms and 34 ms | Left ventricular -dP/dt (mmHg/s) (0.85 mg/kg 0.5h infusion, 6 h): 2044 mmHg/s and 3661 mmHg/s | QRS amplitude (% baseline) (0.85 mg/kg 0.5h infusion, 6 h): 41 % baseline and 65 % baseline | Systolic blood pressure (mmHg) (0.85 mg/kg 0.5h infusion, 6 h): 127 mmHg and 145 mmHg | ECG PR interval (0.85 mg/kg 0.5h infusion, 8 h): 71 ms and 58 ms | ECG QRS duration (0.85 mg/kg 0.5h infusion, 8 h): 36 ms | Left ventricular -dP/dt (mmHg/s) (0.85 mg/kg 0.5h infusion, 8 h): 2042 mmHg/s and 3872 mmHg/s | QRS amplitude (% baseline) (0.85 mg/kg 0.5h infusion, 8 h): 51 % baseline and 72 % baseline | Systolic blood pressure (mmHg) (0.85 mg/kg 0.5h infusion, 8 h): 134 mmHg and 148 mmHg | ECG PR interval (0.85 mg/kg 0.5h infusion, 12 h): 82 ms and 61 ms | ECG QRS duration (0.85 mg/kg 0.5h infusion, 12 h): 35 ms | Left ventricular -dP/dt (mmHg/s) (0.85 mg/kg 0.5h infusion, 12 h): 2433 mmHg/s and 4418 mmHg/s | QRS amplitude (% baseline) (0.85 mg/kg 0.5h infusion, 12 h): 69 % baseline and 94 % baseline | Systolic blood pressure (mmHg) (0.85 mg/kg 0.5h infusion, 12 h): 153 mmHg and 156 mmHg | ECG PR interval (0.85 mg/kg 0.5h infusion, 16 h): 77 ms | ECG QRS duration (0.85 mg/kg 0.5h infusion, 16 h): 34 ms | Left ventricular -dP/dt (mmHg/s) (0.85 mg/kg 0.5h infusion, 16 h): 2409 mmHg/s and 4071 mmHg/s | QRS amplitude (% baseline) (0.85 mg/kg 0.5h infusion, 16 h): 72 % baseline and 94 % baseline | Systolic blood pressure (mmHg) (0.85 mg/kg 0.5h infusion, 16 h): 161 mmHg | ECG PR interval (0.85 mg/kg 0.5h infusion, 22 h): 91 ms and 94 ms | Left ventricular -dP/dt (mmHg/s) (0.85 mg/kg 0.5h infusion, 22 h): 3086 mmHg/s and 4383 mmHg/s | QRS amplitude (% baseline) (0.85 mg/kg 0.5h infusion, 22 h): 72 % baseline and 88 % baseline | Systolic blood pressure (mmHg) (0.85 mg/kg 0.5h infusion, 22 h): 162 mmHg and 158 mmHg | ECG PR interval [3]: 91 ms and 84 ms | ECG QRS duration [3]: 36 ms | Left ventricular -dP/dt (mmHg/s) [3]: 4699 mmHg/s | QRS amplitude (% baseline) [3]: 96 % baseline | Systolic blood pressure (mmHg) [3]: 148 mmHg and 153 mmHg | ECG PR interval (0.85 mg/kg 0.5h infusion, -1 h): 103 ms and 85 ms | Left ventricular -dP/dt (mmHg/s) (0.85 mg/kg 0.5h infusion, -1 h): 4441 mmHg/s | QRS amplitude (% baseline) (0.85 mg/kg 0.5h infusion, -1 h): 94 % baseline | Systolic blood pressure (mmHg) (0.85 mg/kg 0.5h infusion, -1 h): 143 mmHg and 157 mmHg | ECG PR interval [4]: 85 ms | ECG QRS duration [4]: 36 ms | Left ventricular -dP/dt (mmHg/s) [4]: 4911 mmHg/s | QRS amplitude (% baseline) [4]: 97 % baseline | Systolic blood pressure (mmHg) [4]: 167 mmHg | ECG QRS duration (0.85 mg/kg 0.5h infusion, -[…]): 36 ms | Left ventricular -dP/dt (mmHg/s) (0.85 mg/kg 0.5h infusion, -[…]): 5734 mmHg/s | ECG QRS duration (0.85 mg/kg 0.5h infusion, […]): 33 ms | ECG PR interval (0.85 mg/kg 3h infusion, 0.5 h): 108 ms and 81 ms and 83 ms and 88 ms | ECG QRS duration (0.85 mg/kg 3h infusion, 0.5 h): 45 ms and 39 ms and 40 ms and 36 ms | Left ventricular -dP/dt (mmHg/s) (0.85 mg/kg 3h infusion, 0.5 h): 3953 mmHg/s and 3684 mmHg/s and 3219 mmHg/s and 5001 mmHg/s | QRS amplitude (% baseline) (0.85 mg/kg 3h infusion, 0.5 h): 99 % baseline and 100 % baseline and 101 % baseline | Systolic blood pressure (mmHg) (0.85 mg/kg 3h infusion, 0.5 h): 153 mmHg and 151 mmHg and 169 mmHg and 175 mmHg | ECG PR interval (0.85 mg/kg 3h infusion, 0.75 h): 112 ms and 86 ms and 76 ms and 106 ms | ECG QRS duration (0.85 mg/kg 3h infusion, 0.75 h): 46 ms and 39 ms and 41 ms and 36 ms | Left ventricular -dP/dt (mmHg/s) (0.85 mg/kg 3h infusion, 0.75 h): 3752 mmHg/s and 3727 mmHg/s and 3180 mmHg/s and 4454 mmHg/s | QRS amplitude (% baseline) (0.85 mg/kg 3h infusion, 0.75 h): 101 % baseline and 100 % baseline and 97 % baseline | Systolic blood pressure (mmHg) (0.85 mg/kg 3h infusion, 0.75 h): 162 mmHg and 154 mmHg and 161 mmHg and 165 mmHg | ECG PR interval (0.85 mg/kg 3h infusion, 1 h): 101 ms and 87 ms and 81 ms and 84 ms | ECG QRS duration (0.85 mg/kg 3h infusion, 1 h): 45 ms and 39 ms and 41 ms and 36 ms | Left ventricular -dP/dt (mmHg/s) (0.85 mg/kg 3h infusion, 1 h): 4308 mmHg/s and 3741 mmHg/s and 3090 mmHg/s and 4711 mmHg/s | QRS amplitude (% baseline) (0.85 mg/kg 3h infusion, 1 h): 101 % baseline and 100 % baseline and 96 % baseline and 99 % baseline | Systolic blood pressure (mmHg) (0.85 mg/kg 3h infusion, 1 h): 166 mmHg and 151 mmHg and 163 mmHg and 167 mmHg | ECG PR interval (0.85 mg/kg 3h infusion, 1.5 h): 113 ms and 82 ms and 102 ms and 98 ms | ECG QRS duration (0.85 mg/kg 3h infusion, 1.5 h): 45 ms and 39 ms and 40 ms and 36 ms | Left ventricular -dP/dt (mmHg/s) (0.85 mg/kg 3h infusion, 1.5 h): 3633 mmHg/s and 3504 mmHg/s and 2506 mmHg/s and 4720 mmHg/s | QRS amplitude (% baseline) (0.85 mg/kg 3h infusion, 1.5 h): 97 % baseline and 100 % baseline and 104 % baseline | Systolic blood pressure (mmHg) (0.85 mg/kg 3h infusion, 1.5 h): 157 mmHg and 147 mmHg and 135 mmHg and 166 mmHg | ECG PR interval (0.85 mg/kg 3h infusion, 2 h): 108 ms and 84 ms and 81 ms and 93 ms | ECG QRS duration (0.85 mg/kg 3h infusion, 2 h): 45 ms and 39 ms and 40 ms and 36 ms | Left ventricular -dP/dt (mmHg/s) (0.85 mg/kg 3h infusion, 2 h): 3810 mmHg/s and 3536 mmHg/s and 3010 mmHg/s and 5044 mmHg/s | QRS amplitude (% baseline) (0.85 mg/kg 3h infusion, 2 h): 96 % baseline and 100 % baseline and 94 % baseline and 101 % baseline | Systolic blood pressure (mmHg) (0.85 mg/kg 3h infusion, 2 h): 150 mmHg and 147 mmHg and 154 mmHg and 174 mmHg | ECG PR interval (0.85 mg/kg 3h infusion, 3 h): 111 ms and 83 ms and 90 ms and 82 ms | ECG QRS duration (0.85 mg/kg 3h infusion, 3 h): 45 ms and 39 ms and 34 ms | Left ventricular -dP/dt (mmHg/s) (0.85 mg/kg 3h infusion, 3 h): 3434 mmHg/s and 3501 mmHg/s and 3112 mmHg/s and 5003 mmHg/s | QRS amplitude (% baseline) (0.85 mg/kg 3h infusion, 3 h): 90 % baseline and 72 % baseline and 85 % baseline | Systolic blood pressure (mmHg) (0.85 mg/kg 3h infusion, 3 h): 157 mmHg and 146 mmHg and 158 mmHg and 168 mmHg | ECG PR interval (0.85 mg/kg 3h infusion, 4 h): 101 ms and 88 ms and 89 ms | ECG QRS duration (0.85 mg/kg 3h infusion, 4 h): 44 ms and 36 ms and 37 ms and 34 ms | Left ventricular -dP/dt (mmHg/s) (0.85 mg/kg 3h infusion, 4 h): 3780 mmHg/s and 2987 mmHg/s and 2879 mmHg/s and 4676 mmHg/s | QRS amplitude (% baseline) (0.85 mg/kg 3h infusion, 4 h): 85 % baseline and 69 % baseline and 64 % baseline and 74 % baseline | Systolic blood pressure (mmHg) (0.85 mg/kg 3h infusion, 4 h): 155 mmHg and 123 mmHg and 142 mmHg and 159 mmHg | ECG PR interval (0.85 mg/kg 3h infusion, 6 h): 86 ms and 82 ms and 75 ms and 83 ms | ECG QRS duration (0.85 mg/kg 3h infusion, 6 h): 42 ms and 35 ms and 38 ms and 34 ms | QRS amplitude (% baseline) (0.85 mg/kg 3h infusion, 6 h): 64 % baseline and 62 % baseline and 85 % baseline and 72 % baseline | Systolic blood pressure (mmHg) (0.85 mg/kg 3h infusion, 6 h): 116 mmHg and 124 mmHg and 145 mmHg and 147 mmHg | ECG PR interval (0.85 mg/kg 3h infusion, 8 h): 86 ms and 95 ms and 74 ms and 70 ms | ECG QRS duration (0.85 mg/kg 3h infusion, 8 h): 43 ms and 34 ms and 40 ms and 35 ms

Reference: PMC7835349 (Communications Biology, 2021)
